Results as given in patent US9216978B2, “Ring-fused pyrimidines and triazines and use thereof for the treatment and/or prophylaxis of cardiovascular diseases” (BAYER INTELLECTUAL PROPERTY GMBH, priority 2010, dated 2015).
At least one compound was matched to its structure with a doubt left.

Biological target: T1, recombinant guanylate cyclase reporter cell line (Rattus norvegicus, UniProt P19686+P20595)
T1 construct: expressed in transfected cells
T1 sequence (P20595 1-619): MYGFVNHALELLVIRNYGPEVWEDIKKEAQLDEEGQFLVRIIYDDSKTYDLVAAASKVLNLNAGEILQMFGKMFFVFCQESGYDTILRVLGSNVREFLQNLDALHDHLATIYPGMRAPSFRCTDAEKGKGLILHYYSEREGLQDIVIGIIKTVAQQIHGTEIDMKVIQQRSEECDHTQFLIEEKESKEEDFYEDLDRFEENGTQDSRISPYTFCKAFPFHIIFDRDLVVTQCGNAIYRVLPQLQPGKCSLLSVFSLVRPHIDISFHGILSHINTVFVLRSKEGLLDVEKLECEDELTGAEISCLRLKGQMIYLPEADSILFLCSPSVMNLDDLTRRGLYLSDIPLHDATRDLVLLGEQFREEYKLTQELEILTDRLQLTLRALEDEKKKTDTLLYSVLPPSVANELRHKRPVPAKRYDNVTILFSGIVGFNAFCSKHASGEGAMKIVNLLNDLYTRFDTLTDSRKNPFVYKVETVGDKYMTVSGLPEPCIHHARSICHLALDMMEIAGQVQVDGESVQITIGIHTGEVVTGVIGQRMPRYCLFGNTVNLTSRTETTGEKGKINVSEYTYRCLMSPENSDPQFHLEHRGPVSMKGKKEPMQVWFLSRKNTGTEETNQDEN
T1 sequence (P19686 1-690): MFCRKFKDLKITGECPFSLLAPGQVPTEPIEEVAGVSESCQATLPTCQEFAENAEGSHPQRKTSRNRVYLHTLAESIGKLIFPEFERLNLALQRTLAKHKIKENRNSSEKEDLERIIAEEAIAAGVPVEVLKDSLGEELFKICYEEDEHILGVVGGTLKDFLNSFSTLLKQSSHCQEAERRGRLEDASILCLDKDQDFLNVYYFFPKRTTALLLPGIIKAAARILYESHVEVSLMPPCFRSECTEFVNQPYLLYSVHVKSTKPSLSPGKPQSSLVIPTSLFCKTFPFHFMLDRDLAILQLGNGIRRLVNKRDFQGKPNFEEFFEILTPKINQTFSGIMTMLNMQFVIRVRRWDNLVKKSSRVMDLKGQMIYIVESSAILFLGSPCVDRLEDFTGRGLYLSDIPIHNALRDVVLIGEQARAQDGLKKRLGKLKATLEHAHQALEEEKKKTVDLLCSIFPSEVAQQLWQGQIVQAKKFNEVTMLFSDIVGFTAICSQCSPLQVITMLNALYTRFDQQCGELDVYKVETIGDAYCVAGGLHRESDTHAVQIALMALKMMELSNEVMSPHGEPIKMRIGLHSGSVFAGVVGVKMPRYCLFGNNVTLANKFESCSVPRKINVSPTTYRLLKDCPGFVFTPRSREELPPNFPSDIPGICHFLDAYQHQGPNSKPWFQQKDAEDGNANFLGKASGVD
Assay: Action on recombinant guanylate cyclase reporter cell line
Type: cell-based
Description: B-2. Action on Recombinant Guanylate Cyclase Reporter Cell Line
The cellular action of the compounds according to the invention is determined on a recombinant guanylate cyclase reporter cell line, as described in F. Wunder et al., Anal. Biochem. 339, 104-112 (2005).

CC1(C)C(=O)Nc2nc(-c3nn(Cc4ccccc4F)c4ncccc34)nnc21 [Example 9, 3-[1-(2-Fluorobenzyl)-1H-pyrazolo[3,4-b]pyridin-3-yl]-7,7-dimethyl-5,7-dihydro-6H-pyrrolo[2,3-e][1,2,4]triazin-6-one]
MEC (minimal effective concentration): 0.03 µM
